Assay: Unsupervised similarity search of the BioMAP Reference Database

c1ncc(C2=NCCC2)cc1C1=NCCC1 [Example 1]
BioMAP Z-standard (Example 1 at 74 μM vs database match Cetylpyridin chloride, 1 μM): 21.119
BioMAP Z-standard (Example 1 at 74 μM vs database match GDC0941, 370 nM): 21.6
BioMAP Z-standard (Example 1 at 74 μM vs database match Idelalisib, 1 μM): 20.258
common activities annotated (shared with cetylpyridinium chloride, SAg, BT, CASM3C, HDF3CGF, MyoF, lMphg systems): 18

— patent US12358892B2, “Metalloenzyme inhibitors for treating cancers, Alzheimer's disease, hemochromatosis, and other disorders” (Miralogx LLC, priority 2020, dated 2025)
